In PubChem BioAssay AID2685 (National Center for Advancing Translational Sciences (NCATS), 2010):
Some of the results follow. These are further read-outs of the screen, such as a control signal, another cell line or another target. No call is given for them. Compounds called inactive in the main read-out are mostly missing here. Potencies come from curve fits of mixed quality, noted in brackets.

Test: qHTS Assay for Lipid Storage Modulators in Drosophila S3 Cells;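 on cell number change: cells counted by Cell Tracker Red CMTPX staining in the red channel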
Settings: BODIPY lipid droplet fluorescence, 18-24 h; for cell number change: measured here: cell count max response, cells fed with added oleic acid
Procedure, shortened: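 Laser-scanning cytometry quantifies lipid droplet accumulation (500–530 nm total intensity; droplet/cell object ratio) in oleic acid-fed (400 uM added) Drosophila S3 cells treated with a concentration series. 20 uM Triacsin C defined 100% inhibition.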

[1] = measured here: lipid fluorescence (Fed channel) AC50, cells fed with added oleic acid
[2] = measured here: cell number channel AC50, cells fed with added oleic acid

Compound	cell number change [%]	AC50 [1]	AC50 [2]
COC(=O)c1c(C)oc2ccc(OC(=O)c3cccs3)cc12	-19.3	–	–
CC1Cc2ccccc2N1Cc1nc2scc(-c3cccs3)c2c(=O)[nH]1 (stereo not given)	-13.2	20.6 µM [rising, single point]	–
Cc1ccc2nc(N3CCN(C(=O)CCCC(=O)O)CC3)nc(-c3ccccc3)c2c1	27	29.1 µM [falling, single point]	–
CN(CC(=O)Nc1ccc(F)cc1)C(=O)COC(=O)CN1C(=O)NC2(CCCC2)C1=O	-1.47	–	–
Cc1cc(SCC(=O)NCCN2C(=O)CSC2=O)nc2c(C)cccc12	45.6	–	16.4 µM [rising, single point]
COc1cc(/C=C2/C(=N)N3C=CSC3=NC2=O)ccc1OCCCOc1ccccc1C	-27.5	29.1 µM [falling, single point]	–
c1ccc(CNc2ncnc3sc4c(c23)CCC4)nc1	-18.7	–	–
COc1cc(/C=C2/C(=N)N3OC(C)=CC3=NC2=O)ccc1OC(=O)c1ccco1	10.6	–	–
CCn1ncc(CNC(=O)CCCSc2nc(-c3ccco3)cc(C(F)(F)F)n2)c1C	-19.1	29.1 µM [falling, single point]	–
CC1CCCN(CCCNC(=O)c2nn(C)c3c2CSc2ccccc2-3)C1 (stereo not given)	9.48	3.66 µM [falling, single point]	–
CCn1cc(S(=O)(=O)c2ccc(C)cc2)c(=O)c2cc(F)c(N3CCN(C)CC3)cc21	20.2	6.51 µM [falling, single point]	–
CCn1c(SCC(=O)OC)nc2sc3c(c2c1=O)CCC3	-16.1	–	–
CCC(CC)C(=O)Nc1cccc(/C(C)=N/NC(=O)c2c(Br)cnn2C)c1	-9.07	–	–
Cc1cc(=O)n2[nH]c(NCc3ccccc3F)nc2n1	-11.3	29.1 µM [falling, single point]	–
O=C(Nc1ccccc1)Nc1ccc(S(=O)(=O)N2CCCCC2)cc1	-89.1	–	–
CCc1nc(NC(C)(C)C)c2cnn(-c3ccccc3)c2n1	-32.4	0.58 µM [falling, single point]	0.651 µM [falling, full curve]
CCc1cccc(CC)c1NC(=S)N1CCn2cccc2C1c1ccncc1 (stereo not given)	-0.221	–	4.11 µM [rising, single point]
COc1ccc(-c2noc(C3CCCN(C(=O)c4cccc(C)c4)C3)n2)cc1 (stereo not given)	-15.7	–	–
COc1ccc(NC(=O)CN(C)C(=O)/C=C/c2cn(Cc3ccccc3)nc2-c2cccnc2)cc1	30.3	9.2 µM [rising, partial curve, poor fit]	14.6 µM [rising, partial curve, poor fit]
COC(=O)c1ccc(COC(=O)c2ccc(N(C)C)cc2)cc1	-28.4	14.6 µM [rising, single point]	–
CCCCn1c(N)c(N(CC(C)C)C(=O)CN(C)S(=O)(=O)c2ccc(F)cc2)c(=O)[nH]c1=O	27	–	–

Compound	cell number change [%]	AC50 [1]	AC50 [2]
CCOc1ccccc1Nc1nc(N)nc(CN(C)C2CCCCC2)n1	-10.6	0.116 µM [falling, single point]	–
CN(/N=C/c1ccc(O)cc1O)c1ncc(C(F)(F)F)cc1Cl	-49.4	16.4 µM [falling, partial curve]	18.4 µM [falling, single point]
O=C(Nc1ccc(F)cc1)c1ccc(CSc2ccc(Cl)cc2)o1	-2.51	29.1 µM [rising, single point]	–
O=C(O)c1ccccc1/C=N/Nc1nc(N2CCCCC2)nc(N2CCCCC2)n1	-15.6	29.1 µM [falling, single point]	–
COc1ccc(-c2cn(CCC(=O)O)c(-c3ccc(Cl)nc3)n2)cc1	–	0.092 µM [rising, full curve, poor fit]	–
Cc1ccc(N=CC=C2OC(C)(C)C(C)(C)O2)c(C)c1	-2.84	29.1 µM [falling, single point]	0.146 µM [rising, partial curve, poor fit]
CCOc1ccc(C(=O)NCC(=O)OCC(=O)N2C(C)CCCC2C)cc1 (stereo not given)	2.96	–	–
Cc1ccc(N(CC(=O)N2CCOCC2)S(C)(=O)=O)cc1C	16.5	–	–
COC(=O)C1=C(C(=O)OC)[C@@H]2N(Cc3ccccc3)c3ccccc3[C@@]23C[C@@H](C(=O)OC)N(C(=O)COCc2ccccc2)C3=N1	-33.2	29.1 µM [falling, single point]	29.1 µM [falling, single point]
CN1CCN(C(=O)CCCOc2cc(=O)n(C)c3ccccc23)CC1	48.7	1.64 µM [rising, partial curve]	7.31 µM [rising, partial curve]
Nn1c(SCC(=O)Nc2nccs2)nnc1-c1ccco1	-7.58	6.51 µM [falling, partial curve, poor fit]	–
COC(=O)c1c(NS(=O)(=O)Cc2ccccc2)sc2c1CCCC2	-34.9	23.1 µM [falling, single point]	29.1 µM [falling, single point]
CC(C)c1cccc(C(C)C)c1NC(=O)COC(=O)c1ccc(OCC(=O)Nc2cccc(C(F)(F)F)c2)cc1	7.21	0.13 µM [falling, partial curve, poor fit]	–
O=C(Nc1cccc(S(=O)(=O)N2CCOCC2)c1)c1cnccn1	81.7	6.51 µM [falling, single point]	14.6 µM [rising, partial curve]
CCOC(=O)N1CCN(c2ccc(O)cc2)CC1	-4.86	0.651 µM [falling, partial curve, poor fit]	–
COc1ccc(C(=O)C[n+]2ccc3c(c2)nc(-c2cc(OC)c(OC)cc2OC)n3C)cc1	17.1	6.51 µM [falling, single point]	–
COc1ccc(CN=CC2=C(O)CNC2=O)cc1	-5.19	16.4 µM [falling, single point]	–
COc1ccc(Nc2nc(C)c(-c3ccccc3)s2)cc1	-31.7	6.51 µM [falling, single point]	5.17 µM [falling, full curve]
O=C(CCC(=O)c1ccccc1)NCCOc1ccccc1	32.2	6.51 µM [falling, single point]	1.84 µM [rising, partial curve]
CCc1nc(SCC(=O)N2CCCCC2)c2c(=O)n(C)c(=O)n(C)c2n1	-16.6	–	6.51 µM [falling, single point]
CCC(C(=O)Nc1ccccc1OC)n1c(C(=O)OC)cc2ccsc21 (stereo not given)	-11.1	18.4 µM [falling, partial curve, poor fit]	–

Just AC50 [1] and cell number change [%], for 4 of the compounds above:
Compound	AC50 [1]	cell number change [%]
COC(=O)c1c(C)oc2ccc(OC(=O)c3cccs3)cc12	–	-19.3
CC1Cc2ccccc2N1Cc1nc2scc(-c3cccs3)c2c(=O)[nH]1 (stereo not given)	20.6 µM [rising, single point]	-13.2
CN1CCN(C(=O)CCCOc2cc(=O)n(C)c3ccccc23)CC1	1.64 µM [rising, partial curve]	48.7
O=C(Nc1cccc(S(=O)(=O)N2CCOCC2)c1)c1cnccn1	6.51 µM [falling, single point]	81.7

Following part.

Compound	cell number change [%]	AC50 [1]	AC50 [2]
CC/C(=N\NC(=O)c1cc(C2CC2)[nH]n1)c1ccccc1	23.9	29.1 µM [rising, single point]	–
COc1cccc(-c2c(-c3cc(OC)cc(OC)c3)n(C)c3ccc(Br)cc23)c1	11.3	0.231 µM [falling, full curve]	0.259 µM [falling, full curve, poor fit]
CSc1ccc(-c2sc(Nc3ccccc3)n[n+]2-c2ccccc2)cc1	-2.69	16.4 µM [falling, single point]	–
Cc1ccc2nc(C(F)C(F)(F)F)[nH]c2c1 (stereo not given)	4.97	3.26 µM [rising, partial curve]	–
CCOC(=O)C1=C(C)NC(C)=C(C(=O)OCC)C1c1sccc1C	-41.3	–	–
CC(OC(=O)c1cccnc1Cl)C(=O)NCc1ccccc1 (stereo not given)	-31.5	2.06 µM [rising, partial curve, poor fit]	29.1 µM [falling, single point]
Cc1ccc(/C=C2\SC(=S)N(CCC(=O)NNC(=O)c3cccc(O)c3)C2=O)cc1	-36.1	16.4 µM [falling, partial curve]	29.1 µM [falling, single point]
C=CCn1c(-c2cccnc2)n[nH]c1=S	5.46	1.64 µM [rising, partial curve]	–
COc1cc2c(cc1OC)C(c1ccc(-c3ccccc3Cl)o1)=NCC2	18	2.06 µM [rising, partial curve]	1.3 µM [rising, full curve]
CC(C)CNC(=S)NC1CC2CCCC(C1)N2Cc1ccco1 (stereo not given)	-29.5	25.9 µM [falling, partial curve, poor fit]	–
CCOc1ccc2ccccc2c1/C=N/NC(=O)CNC(=O)Cc1ccccc1	4.7	–	6.51 µM [rising, single point]
O=C(Nc1ccccc1)C1CCN(c2nccs2)CC1	6.82	0.13 µM [falling, full curve, poor fit]	0.517 µM [falling, single point]
O=C1c2ccccc2NC(c2cccc(F)c2)N1Cc1ccccc1 (stereo not given)	9.45	–	–
O=C(Oc1ccc(Cl)c2cccnc12)N1CCCCC1	-12.4	–	–
S=C(NCc1cccnc1)Nc1cc(Cl)cc(Cl)c1	5.27	–	–
CCc1nccn1CCC(=O)N1CCCC(Nc2ccc(F)cc2)C1 (stereo not given)	-11.9	29.1 µM [falling, single point]	–
COc1ccc(C2C(C#N)=C(N)Oc3c2c(-c2ccccc2)nn3-c2ccccc2)c(OC)c1OC (stereo not given)	4.17	3.66 µM [falling, single point]	–
CC(=O)Nc1ccc(S(=O)(=O)N2CCC(c3nc4ccc(C)cc4[nH]3)CC2)cc1	2.73	–	–
Cc1cc(C)nc(NC(=O)CSc2nn(C)c(=S)s2)n1	–	0.58 µM [rising, single point]	0.58 µM [rising, single point]
